Laboratory results taken from the M2OR odorant receptor database.
The entries are a selection whose mix differs from that of the whole data set. The calls were merged from several studies; some rest on single wells. This is one part of the list.

Tests used:
Conditions in all cases: stereoisomer not certain
OR5T2 [1] = tested on: T1, OR5T2
T1 sequence (whole entry): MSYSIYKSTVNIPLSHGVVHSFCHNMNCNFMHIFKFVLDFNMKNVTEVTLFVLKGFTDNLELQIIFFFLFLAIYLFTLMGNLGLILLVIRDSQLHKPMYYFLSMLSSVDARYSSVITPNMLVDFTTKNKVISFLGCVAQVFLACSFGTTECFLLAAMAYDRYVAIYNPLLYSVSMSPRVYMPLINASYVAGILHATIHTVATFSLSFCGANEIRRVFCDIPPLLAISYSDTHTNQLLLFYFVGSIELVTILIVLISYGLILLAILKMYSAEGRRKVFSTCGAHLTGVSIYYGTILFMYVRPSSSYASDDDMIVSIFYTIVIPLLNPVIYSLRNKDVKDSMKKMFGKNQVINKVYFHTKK
Method in brief: (§1)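 Transient luciferase assays in mammalian cell lines were common, though methods varied by source. The values come from published papers and their supplementary material, with extra details from the original authors when needed. Responsive refers to a measured signal the original authors judged statistically different from baseline, and non-responsive (inactive) to the remainder.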

OR5T2 [2] = tested on: T2, OR5T2; remark: listed apart in the source
T2 sequence (whole entry): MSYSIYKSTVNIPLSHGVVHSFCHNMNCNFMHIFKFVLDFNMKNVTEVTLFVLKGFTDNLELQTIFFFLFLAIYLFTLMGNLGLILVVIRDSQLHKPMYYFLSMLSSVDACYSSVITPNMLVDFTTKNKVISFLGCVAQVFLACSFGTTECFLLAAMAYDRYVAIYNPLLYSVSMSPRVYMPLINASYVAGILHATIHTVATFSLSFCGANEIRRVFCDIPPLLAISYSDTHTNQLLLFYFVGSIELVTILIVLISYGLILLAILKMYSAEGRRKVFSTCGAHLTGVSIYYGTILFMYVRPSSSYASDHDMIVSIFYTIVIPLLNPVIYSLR
Method in brief: as §1

OR5T3 = tested on: T3, OR5T3
T3 sequence (whole entry): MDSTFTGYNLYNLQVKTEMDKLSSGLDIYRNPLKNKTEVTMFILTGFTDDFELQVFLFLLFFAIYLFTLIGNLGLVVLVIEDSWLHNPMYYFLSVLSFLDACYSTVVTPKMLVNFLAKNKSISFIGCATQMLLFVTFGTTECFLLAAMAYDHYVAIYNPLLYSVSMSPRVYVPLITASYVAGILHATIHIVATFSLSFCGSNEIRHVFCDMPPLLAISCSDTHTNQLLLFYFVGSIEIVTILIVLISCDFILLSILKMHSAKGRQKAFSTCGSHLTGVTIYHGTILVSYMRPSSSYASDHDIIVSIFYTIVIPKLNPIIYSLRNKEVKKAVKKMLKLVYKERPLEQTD
Method in brief: as §1

OR5V1 (Homo sapiens) = target: T4, OR5V1 (Homo sapiens) (UniProt Q9UGF6)
T4 sequence (whole entry): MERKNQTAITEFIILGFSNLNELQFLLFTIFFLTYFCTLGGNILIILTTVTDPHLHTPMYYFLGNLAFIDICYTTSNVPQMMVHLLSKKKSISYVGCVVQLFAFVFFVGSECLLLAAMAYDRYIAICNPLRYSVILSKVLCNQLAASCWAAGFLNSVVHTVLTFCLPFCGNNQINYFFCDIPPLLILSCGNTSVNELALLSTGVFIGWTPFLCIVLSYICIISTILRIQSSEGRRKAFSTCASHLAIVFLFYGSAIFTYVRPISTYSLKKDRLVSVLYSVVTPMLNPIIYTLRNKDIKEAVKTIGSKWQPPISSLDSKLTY
Method in brief: as §1

OR5W2 = tested on: T5, OR5W2
T5 sequence (whole entry): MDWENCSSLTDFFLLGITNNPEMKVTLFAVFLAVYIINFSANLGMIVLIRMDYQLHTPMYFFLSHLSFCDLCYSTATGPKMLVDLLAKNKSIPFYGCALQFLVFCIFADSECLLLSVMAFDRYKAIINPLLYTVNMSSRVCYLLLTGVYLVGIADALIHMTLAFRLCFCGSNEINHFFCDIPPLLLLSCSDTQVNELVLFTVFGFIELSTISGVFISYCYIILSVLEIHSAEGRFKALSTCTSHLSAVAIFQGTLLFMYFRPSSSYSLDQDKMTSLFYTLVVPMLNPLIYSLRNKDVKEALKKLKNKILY
Method in brief: as §1

OR6A2 (Homo sapiens) = target: T6, OR6A2 (Homo sapiens) (UniProt O95222)
T6 sequence (whole entry): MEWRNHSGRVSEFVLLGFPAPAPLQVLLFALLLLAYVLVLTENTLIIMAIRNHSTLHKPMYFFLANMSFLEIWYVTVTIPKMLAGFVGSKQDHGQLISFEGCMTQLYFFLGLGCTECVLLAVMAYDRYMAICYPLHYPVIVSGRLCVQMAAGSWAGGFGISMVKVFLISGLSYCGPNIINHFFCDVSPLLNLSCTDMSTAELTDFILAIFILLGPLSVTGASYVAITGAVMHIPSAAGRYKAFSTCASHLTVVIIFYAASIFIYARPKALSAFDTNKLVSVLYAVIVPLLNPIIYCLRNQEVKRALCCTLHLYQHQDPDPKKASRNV
Method in brief: as §1

OR6B1 = tested on: T7, OR6B1
T7 sequence (whole entry): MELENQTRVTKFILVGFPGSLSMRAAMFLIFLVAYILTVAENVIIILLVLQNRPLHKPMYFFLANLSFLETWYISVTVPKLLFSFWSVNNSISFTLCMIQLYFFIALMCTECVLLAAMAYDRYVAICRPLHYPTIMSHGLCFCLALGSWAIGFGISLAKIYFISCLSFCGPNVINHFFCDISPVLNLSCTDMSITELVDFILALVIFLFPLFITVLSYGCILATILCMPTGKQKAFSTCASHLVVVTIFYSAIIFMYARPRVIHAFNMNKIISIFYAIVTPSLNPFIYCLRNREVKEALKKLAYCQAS
Method in brief: as §1

OR6B2 = tested on: T8, OR6B2
T8 sequence (whole entry): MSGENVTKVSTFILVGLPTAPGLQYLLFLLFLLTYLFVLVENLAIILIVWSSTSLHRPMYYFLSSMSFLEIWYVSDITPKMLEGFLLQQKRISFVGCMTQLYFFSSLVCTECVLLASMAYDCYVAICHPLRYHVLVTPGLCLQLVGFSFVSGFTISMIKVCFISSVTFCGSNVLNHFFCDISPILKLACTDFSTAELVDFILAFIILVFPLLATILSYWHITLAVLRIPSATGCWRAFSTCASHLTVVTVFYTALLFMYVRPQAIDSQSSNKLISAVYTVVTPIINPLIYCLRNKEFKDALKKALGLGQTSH
Method in brief: as §1

OR6B3 = tested on: T9, OR6B3
T9 sequence (whole entry): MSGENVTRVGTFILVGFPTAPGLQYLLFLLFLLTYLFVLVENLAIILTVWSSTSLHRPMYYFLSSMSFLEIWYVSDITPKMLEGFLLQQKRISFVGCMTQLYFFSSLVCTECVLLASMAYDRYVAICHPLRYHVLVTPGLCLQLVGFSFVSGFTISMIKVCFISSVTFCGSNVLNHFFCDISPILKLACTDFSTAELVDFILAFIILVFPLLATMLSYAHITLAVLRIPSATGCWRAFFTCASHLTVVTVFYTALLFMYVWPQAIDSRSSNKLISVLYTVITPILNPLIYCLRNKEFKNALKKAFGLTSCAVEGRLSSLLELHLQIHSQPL
Method in brief: as §1

OR6C1 = tested on: T10, OR6C1
T10 sequence (whole entry): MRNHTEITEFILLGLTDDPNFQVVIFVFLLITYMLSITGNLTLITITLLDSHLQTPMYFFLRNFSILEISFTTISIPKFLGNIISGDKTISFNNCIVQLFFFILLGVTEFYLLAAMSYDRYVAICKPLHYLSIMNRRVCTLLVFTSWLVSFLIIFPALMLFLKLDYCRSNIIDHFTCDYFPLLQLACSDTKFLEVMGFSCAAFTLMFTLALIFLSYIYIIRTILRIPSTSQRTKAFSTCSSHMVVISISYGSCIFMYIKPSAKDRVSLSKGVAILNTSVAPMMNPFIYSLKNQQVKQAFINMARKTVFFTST
Method in brief: as §1

Measured: odorant receptor agonist call;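 note: active if original authors judged signal statistically different from baseline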

CCCCOC(C)=O
inactive: all assays above
